Experimental data taken from PubChem BioAssay AID2685 (National Center for Advancing Translational Sciences (NCATS), 2010).
Some of the results follow. These are further read-outs of the screen, such as a control signal, another cell line or another target. No call is given for them. Compounds called inactive in the main read-out are mostly missing here. Potencies come from curve fits of mixed quality, noted in brackets.

Test: qHTS Assay for Lipid Storage Modulators in Drosophila S3 Cells;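 as to cell number change: cells counted by Cell Tracker Red CMTPX staining in the red channel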
Settings: BODIPY lipid droplet fluorescence, 18-24 h; for cell number change: measured here: cell count max response, cells fed with added oleic acid
In short: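 Laser-scanning cytometry quantifies lipid droplet accumulation (500–530 nm total intensity; droplet/cell object ratio) in oleic acid-fed (400 uM added) Drosophila S3 cells treated with a concentration series. 20 uM Triacsin C defined 100% inhibition.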

[1] = measured here: lipid fluorescence (Fed channel) AC50, cells fed with added oleic acid
[2] = measured here: cell number channel AC50, cells fed with added oleic acid

Row | SMILES | cell number change | AC50 [1] | AC50 [2]
1 | Cc1cc(C)n(C(=O)CNC(=O)c2cccc(Cl)c2)n1 | 1.61% | 0.58 µM [rising, single point] | –
2 | CCCSc1ccc(C(=O)Nc2ccc(F)cc2F)cn1 | -23.5% | 23.1 µM [falling, single point] | –
3 | Brc1ccc2c(c1)C(C1=NCCN1)c1ccccc1CS2 (stereo not drawn) | -0.244% | 32.6 µM [rising, single point] | –
4 | COc1ccc(OC)c(S(=O)(=O)N2CCC(C(=O)NC3CCCCCC3)CC2)c1 | 40.8% | 5.62 µM [falling, single point] | 1.64 µM [rising, full curve]
5 | CC(C)CN(CCCNC(=O)CN1C(=O)COc2ccc(S(=O)(=O)N3CCC(C)CC3)cc21)CC(C)C | -0.917% | 0.92 µM [rising, full curve] | –
6 | O=C(Nc1nccs1)c1ccc2nccnc2c1 | -16.6% | 6.51 µM [rising, partial curve, poor fit] | –
7 | Cc1ccc(NS(=O)(=O)c2cccc(C(=O)N3CCCCCC3)c2)cc1 | -24.5% | – | –
8 | Cc1ccc(NC(=O)CN2CCN(Cc3ccccc3)CC2)c(Br)c1 | 13.7% | 6.51 µM [falling, single point] | –
9 | CCOc1ccccc1-n1c(SCC(=O)NC(C)(C)C)nnc1-c1ccoc1C | -26.6% | – | –
10 | CC(C)C(NC(=O)c1ccccc1)C(=O)OCc1cc([N+](=O)[O-])cc2c1OCOC2 (stereo not drawn) | -40.7% | 20.6 µM [falling, single point] | 25.9 µM [falling, single point]
11 | CC(Oc1cccc(Cl)c1)C(=O)NCCCCc1ccccc1 (stereo not drawn) | 4.66% | 0.411 µM [rising, full curve, poor fit] | –
12 | Cc1cc(C)c(C#N)c(Sc2ccc(N)cc2)n1 | 29.7% | 7.31 µM [rising, partial curve, poor fit] | –
13 | Cc1ccc(-n2[nH]c(C)c(C=Nc3ccc4[nH]c(=O)[nH]c4c3)c2=O)cc1 | -89.2% | 20.6 µM [falling, partial curve] | 29.1 µM [falling, single point]
14 | O=C(CCN1C(=O)[C@H]2CC=CC[C@H]2C1=O)NCc1nc(-c2ccccc2)no1 | -13.3% | 25.9 µM [rising, single point] | –
15 | CC(C)n1cc(C(N)=S)c(=O)n(Cc2ccccc2)c1=O | -29.2% | – | –
16 | Cc1cccc(C(=O)N2CCN(c3ccc([N+](=O)[O-])c(NCc4ccco4)c3)CC2)c1 | 0.256% | 0.58 µM [rising, single point] | –
17 | COC(=O)c1c(NC(=O)C2CC2)sc(C(=O)Nc2ccccc2)c1C | 57.9% | – | 29.1 µM [rising, single point]
18 | CCOC(=O)[C@@H]1[C@H]2COc3ccccc3[C@@H]2N2C(=O)N(c3cccc(C)c3)C(=O)[C@]12C | 32.9% | 29.1 µM [rising, single point] | 23.1 µM [rising, single point]
19 | COC(=O)c1sc(SC)nc1N | – | 3.26 µM [rising, single point] | –

Part of the list above in another layout:
Row,SMILES,cell number change,AC50 [1],AC50 [2]
1,Cc1cc(C)n(C(=O)CNC(=O)c2cccc(Cl)c2)n1,1.61%,"0.58 µM [rising, single point]",–
10,CC(C)C(NC(=O)c1ccccc1)C(=O)OCc1cc([N+](=O)[O-])cc2c1OCOC2 (stereo not drawn),-40.7%,"20.6 µM [falling, single point]","25.9 µM [falling, single point]"
17,COC(=O)c1c(NC(=O)C2CC2)sc(C(=O)Nc2ccccc2)c1C,57.9%,–,"29.1 µM [rising, single point]"

Later entries:

Row | SMILES | cell number change | AC50 [1] | AC50 [2]
20 | Cn1c(NNC(=O)c2cccc3ccccc23)cc(=O)n(C)c1=O | -2.89% | 0.00517 µM [falling, full curve, poor fit] | –
21 | Oc1ccccc1C=Nc1ccccc1-c1nc2ccccc2[nH]1 | -18.6% | 16.4 µM [falling, single point] | –
22 | CCC(Sc1nc2cc3c(cc2c(=O)n1Cc1ccco1)OCO3)C(=O)NCCOC (stereo not drawn) | – | 2.31 µM [rising, partial curve, poor fit] | –
23 | O=C(CCN1C(=O)c2ccccc2C1=O)Nn1cnnc1 | 6.86% | – | –
24 | COc1ccc(C2C3C(C)=NN=C3CC(C)(O)C2C(C)=O)cc1 (stereo not drawn) | – | 0.184 µM [rising, full curve, poor fit] | –
25 | Cn1c(=O)c(=O)n(C)c2cc(S(=O)(=O)N3CCN(c4ccccc4F)CC3)ccc21 | 9.96% | 0.013 µM [rising, full curve, poor fit] | –
26 | O=C(N[C@@H](Cc1c[nH]c2ccccc12)C(=O)O)C1CCN(S(=O)(=O)c2cccs2)CC1 | 20.7% | – | 0.82 µM [rising, full curve, poor fit]
27 | CC1CC(=O)Nc2ccccc2N1C(=O)Cn1cnc2ccccc2c1=O (stereo not drawn) | -7.38% | 32.6 µM [rising, single point] | –
28 | CC1CN(c2cc(=O)n(-c3ccccc3)c(=O)[nH]2)CC(C)O1 (stereo not drawn) | -32% | – | 14.6 µM [falling, single point]
29 | COc1c(Br)cc(Br)cc1C(=O)Nc1ccccc1N1CCCC1 | 90.8% | 29.1 µM [rising, single point] | 25.9 µM [rising, partial curve]
30 | CCn1c(C)cc(/C=C2\NC(=O)N(CC(=O)Nc3ccc(F)cc3)C2=O)c1C | -0.955% | 16.4 µM [falling, partial curve, poor fit] | –
31 | C=CCSc1nnc2nc3c(nn12)c1cc(C)ccc1n3CC=C | -16.4% | 0.146 µM [rising, full curve, poor fit] | –
32 | CCCCNC(=O)C1Cc2cc(S(=O)(=O)N3CCCCC3)ccc2N1C(C)=O (stereo not drawn) | 1.47% | – | –
33 | COc1ccccc1C(=O)Nc1ccc(C(=O)c2ccccc2)cc1 | -46.5% | 29.1 µM [falling, single point] | 16.4 µM [falling, single point]
34 | CCN(c1ccccc1)S(=O)(=O)c1ccc2c(c1)N(C(C)=O)CCO2 | 9.48% | – | –
35 | COC(=O)CCn1c(C)cc(C(=O)COc2ccccc2C(N)=O)c1C | -16.6% | 0.461 µM [rising, full curve, poor fit] | –
36 | CC(=O)Nc1nonc1NC(C)=O | 4.81% | 20.6 µM [falling, single point] | –
37 | CC(CN1C(C)CCCC1C)OC(=O)c1ccc(Cl)cc1 (stereo not drawn) | – | 2.06 µM [falling, single point] | –
38 | CCCCOc1cccc(C(=O)N(Cc2ccco2)C2CCS(=O)(=O)C2)c1 (stereo not drawn) | 58.3% | 0.651 µM [falling, full curve, poor fit] | 29.1 µM [rising, single point]
